# Measured values as given in the supplement of paper PMC5949888.
# ± gives the standard deviation of the averaged measurements. Most values lie at the floor of the assay. Slopes are relative: functional sequences can read slightly below zero.
# System: Saccharomyces cerevisiae PS128 hsf1 delta, HSF1(1-493) fusion
# Test: growth estimate (transactivation domain function in HSF1 fusion, heat-shock survival) (a.u. (slope of normalised read count over time)); higher = stronger growth at 37°C, i.e. more transactivation activity
# Settings: library: random library
# Method: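 Random 60-nt DNA library encoding peptides of up to 20 aa, fused to the C-terminus of yeast HSF1 residues 1-493 (C-terminal TAD deleted) and expressed from the native HSF1 promoter on a CEN plasmid in hsf1-deleted S. cerevisiae PS128. Cells were selected at 37°C on -trp 5-FOA plates for 0, 2, 4, 6 and 8 days and amplicons were sequenced. Growth estimate is the slope of a robust linear fit of total-sum-normalised read counts (normalised to the first time point) over time, using at least 2 replicates. Sequences are classed functional (TAD activity) above a threshold of -0.13, set from stop-codon control sequences.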
row,Substance,growth estimate
1,DVIRPFLRYFRRGEARSTPC,< -0.25
2,DFGGQ,< -0.25
3,QEAYPFRLHRPTDARPCLAS,-0.218
4,VSWGA,< -0.25
5,VSWRPGAQGHSK,< -0.25
6,TVPPPSVVL,< -0.25
7,SQSMLQIEVRRGPCRHLPSC,< -0.25
8,SSDYHSLELGGSGVAAVI,< -0.25
9,CIKRDPQISAKMRERFSLEW,< -0.25
10,PGN,< -0.25
11,GDHDR,< -0.25
12,DAHPQVQVEDFFDVRDT,-0.0522
13,RIGPRHTPYMGASGISSVGG,< -0.25
14,KRVPASSCRTTAGY,< -0.25
15,PNPRHSANKRHDLTSAA,< -0.25
16,LRDSRDERVVRLLQCFALNR,< -0.25
17,RRLMSLVSVMKKFGQLLHLA,< -0.25
18,FLT,< -0.25
19,MSCLRPIEDCSVPHP,< -0.25
20,SQSIC,< -0.25
21,YRTLPLSLRVRFQARRALSR,< -0.25
22,NLRTCDRWSGMSG,< -0.25
23,FSGGFG,< -0.25
24,PRFRIMGGGAAVKGHVTWWP,< -0.25
25,PASKYTVVQQDCERVGGTQT,< -0.25

row,Substance,growth estimate
1,GKLISGVGLGECRMPGTERR,-0.246
2,NGRVVHPCRVEPRMRVVDGS,< -0.25
3,GLGSGTRSARKVGRLSYEFV,< -0.25
4,EQAGWCNRTNLRSPG,< -0.25
5,CNPKARCEPKVPSTV,< -0.25
6,VHGSEVVCDWYLDWAWEVTV,< -0.25
7,TTRPNW,< -0.25
8,TAASPYVTSLPQIRLTTSDP,< -0.25
9,YDQECEFDPTVRVYLSARSA,< -0.25
10,AQRGDFRRTRLSTQVSNLIL,< -0.25
11,GISFTASPVCGFWL,-0.0277
12,VELVEVSLIAYGGAMAHESR,< -0.25
13,LTSANSHGNLRTVEGLSYNK,< -0.25
14,ISYCSQAETGSAVSMPLSRG,< -0.25
15,PDDSGWGRKDR,< -0.25
16,KCNL,< -0.25
17,IGRQGGIPGRFNRVLLWTGK,< -0.25
18,REGSIAQYR,< -0.25
19,QGEGSADMVQFGLCGVTRDE,< -0.25
20,TIGCHPLHIGYVTSLLGIGT,< -0.25
21,PALATRVQDSQRASVGCA,< -0.25
22,FQVRLTSFSVLSWKGRTNDV,< -0.25
23,GLC,< -0.25
24,MENVWEVIWKVSLGMRVVSI,< -0.25
25,SCPARTRIIDGWVRYLCPTP,< -0.25

row,Substance,growth estimate
1,SSVGKVLGIKRVKARPAVTP,< -0.25
2,HIVGDRL,< -0.25
3,GILPCIQLTNTHLGERLEWI,-0.231
4,ESE,< -0.25
5,RPLGNKLPMERPIRCASGRM,< -0.25
6,QGSMLDIAAR,< -0.25
7,KYALLGNS,< -0.25
8,WCGGWSHHKFLIG,< -0.25
9,GAGNWPPLCSGARAWRCSRQ,< -0.25
10,KPPHRWMR,< -0.25
11,KAGPPNRARRE,< -0.25
12,AQMAVRELISYPIMTRKKVS,< -0.25
13,LQWWHLDSIPQLQVGSEDSD,< -0.25
14,GRVP,< -0.25
15,IKTALRPRSVTD,< -0.25
16,PCERCLSVHPRWACSRSPGM,-0.203
17,PDVLCTDPAHQALYTVKYSR,< -0.25
18,PTDRALL,< -0.25
19,LQIPCALVF,< -0.25
20,NAAKVSSSTFYCEQTTAASQ,< -0.25
21,IKARLARSTHGSTVL,< -0.25
22,CGI,-0.219
23,SRWLAPVKLPTGTNGQVRLD,< -0.25
24,VVIRLDIATGRTTLSADRSL,< -0.25
25,DPDPIIRPKMSGGRAYCRQV,-0.245

row,Substance,growth estimate
1,IGCGYVA,< -0.25
2,RIRLMNGASYAS,< -0.25
3,QSAKCLSQPIFHWAT,< -0.25
4,LRIARV,< -0.25
5,SLSEVLDVYSLGSHGQTSNW,-0.157
6,RNGFKSTAEFPALVAPNARR,< -0.25
7,FRVSDSMMVGCTTLGLCVVR,-0.231
8,MYLHVVRRCVVRWVLGSPKL,< -0.25
9,KGGVGVIDLSVGSLNRINIR,< -0.25
10,ICVPPVEEETREHAALTLVK,< -0.25
11,PRSRVG,< -0.25
12,FRRISETGATV,< -0.25
13,MPLEPASAGGMFESVGAVFD,< -0.25
14,KCKNLKRC,-0.219
15,RSCVRR,< -0.25
16,ARLSPPLPAG,< -0.25
17,TPVEPAKPNTWGGGHADLGH,< -0.25
18,YVRAD,< -0.25
19,SQCH,< -0.25
20,NVGVSVFGCN,< -0.25
21,WITL,-0.0269
22,SCNIRVERRCYGEWQSEICL,< -0.25
23,ATMGIAMYGHKRHSCGNSLG,< -0.25
24,GFGTARTSA,< -0.25
25,VMPVG,< -0.25

# A run of entries taken from the entries so far, as a working copy:
row,Substance,growth estimate
17,RRLMSLVSVMKKFGQLLHLA,< -0.25
18,FLT,< -0.25
19,MSCLRPIEDCSVPHP,< -0.25
20,SQSIC,< -0.25
21,YRTLPLSLRVRFQARRALSR,< -0.25
22,NLRTCDRWSGMSG,< -0.25
23,FSGGFG,< -0.25
24,PRFRIMGGGAAVKGHVTWWP,< -0.25
25,PASKYTVVQQDCERVGGTQT,< -0.25
1,GKLISGVGLGECRMPGTERR,-0.246
2,NGRVVHPCRVEPRMRVVDGS,< -0.25
3,GLGSGTRSARKVGRLSYEFV,< -0.25
4,EQAGWCNRTNLRSPG,< -0.25
5,CNPKARCEPKVPSTV,< -0.25
6,VHGSEVVCDWYLDWAWEVTV,< -0.25
7,TTRPNW,< -0.25
8,TAASPYVTSLPQIRLTTSDP,< -0.25
9,YDQECEFDPTVRVYLSARSA,< -0.25
10,AQRGDFRRTRLSTQVSNLIL,< -0.25
11,GISFTASPVCGFWL,-0.0277
12,VELVEVSLIAYGGAMAHESR,< -0.25
13,LTSANSHGNLRTVEGLSYNK,< -0.25
14,ISYCSQAETGSAVSMPLSRG,< -0.25
15,PDDSGWGRKDR,< -0.25
16,KCNL,< -0.25
17,IGRQGGIPGRFNRVLLWTGK,< -0.25
18,REGSIAQYR,< -0.25
19,QGEGSADMVQFGLCGVTRDE,< -0.25
20,TIGCHPLHIGYVTSLLGIGT,< -0.25
21,PALATRVQDSQRASVGCA,< -0.25
22,FQVRLTSFSVLSWKGRTNDV,< -0.25
23,GLC,< -0.25
24,MENVWEVIWKVSLGMRVVSI,< -0.25
25,SCPARTRIIDGWVRYLCPTP,< -0.25
1,SSVGKVLGIKRVKARPAVTP,< -0.25
2,HIVGDRL,< -0.25
3,GILPCIQLTNTHLGERLEWI,-0.231
4,ESE,< -0.25
5,RPLGNKLPMERPIRCASGRM,< -0.25
6,QGSMLDIAAR,< -0.25
7,KYALLGNS,< -0.25
8,WCGGWSHHKFLIG,< -0.25
9,GAGNWPPLCSGARAWRCSRQ,< -0.25
10,KPPHRWMR,< -0.25
11,KAGPPNRARRE,< -0.25
12,AQMAVRELISYPIMTRKKVS,< -0.25
13,LQWWHLDSIPQLQVGSEDSD,< -0.25
14,GRVP,< -0.25
15,IKTALRPRSVTD,< -0.25
16,PCERCLSVHPRWACSRSPGM,-0.203
17,PDVLCTDPAHQALYTVKYSR,< -0.25
18,PTDRALL,< -0.25
19,LQIPCALVF,< -0.25
20,NAAKVSSSTFYCEQTTAASQ,< -0.25
21,IKARLARSTHGSTVL,< -0.25
22,CGI,-0.219

# Additional records

row,Substance,growth estimate
1,RATSC,< -0.25
2,GNQAGVDPRYMVFSWYERCF,< -0.25
3,RAGAGGIGLSIDGRE,< -0.25
4,LSIGLV,< -0.25
5,TRSG,< -0.25
6,MKRHRAYLSASPSQRSC,< -0.25
7,PKRESEVRGSCSRALVLAYW,< -0.25
8,SEQLSAEPARVSDLCMVLAS,< -0.25
9,ARSAPCISGMIGSWVVTQLV,< -0.25
10,TRCHSLVPRVIHPSRHGYIN,< -0.25
11,TLTSLNPIFVAHCAPRSPKA,< -0.25
12,VRSGFGSARQMLCQHRQLCG,< -0.25
13,VVALFKDLF,< -0.25
14,RCHCPTSIISMRRRRGTDIQ,< -0.25
15,GTGTPKYRGDHIHITE,< -0.25
16,QNTSILNYCA,< -0.25
17,GLVRGSRGRVIVKTFEETGS,< -0.25
18,WGLFVPRRPAQLLPRGGDMT,< -0.25
19,NSV,< -0.25
20,HDGGLIYVAVAGSDQINSNL,< -0.25
21,CGGSSISFFCSC,< -0.25
22,YDPIARGCEATAYY,< -0.25
23,LTTQR,-0.226
24,AVRFHGMPLDTFYRVGSGPA,-0.243
25,RKGSVSL,< -0.25

row,Substance,growth estimate
1,LGTTMVQQRVR,< -0.25
2,DRSG,< -0.25
3,AGQLWSSRHAAINCLVSVA,< -0.25
4,SNRNTRSGLSSTPLSVSDVR,< -0.25
5,CTTS,< -0.25
6,NEGFEQSSGRHPTRVKAAQY,< -0.25
7,TKARASDFSKPAC,< -0.25
8,VRHSGIILAT,< -0.25
9,VVPGRTLILRLSGSRAAAPR,-0.208
10,KAR,< -0.25
11,GRGRFSQGKLWRRRGDAIGS,< -0.253
12,RSTCRI,< -0.25
13,LAMYTFLWTAVLLHELGNKV,< -0.25
14,RSEF,< -0.25
15,LLREALRE,< -0.25
16,NRI,< -0.25
17,PFRTRERIPKAGPCRFQMAV,< -0.25
18,SRSLANLN,< -0.25
19,TMTR,< -0.25
20,HHLFMI,< -0.25
21,FVGRNRSLVDGLPTAATRQI,< -0.25
22,TRGYHIEYTNHPGGE,< -0.25
23,EYASDQVTGR,< -0.25
24,LGRGWGATRTRSITMIVSWR,< -0.25
25,NGEPCHHGAMHLRLSGRGGP,< -0.25

row,Substance,growth estimate
1,DLLIVSCSNRVFPV,< -0.25
2,SQGGVMHSWRYR,< -0.25
3,HVDITVRARSSRRIVAALRG,< -0.25
4,SYVDFEVRWFTGPTNASLGR,< -0.25
5,VAGIGQGFAREIIDA,< -0.25
6,FGCN,< -0.25
7,GQVSDWR,< -0.25
8,CGLGCGCFVFGSDEAAG,-0.243
9,STAARIKVPSRAQCLR,< -0.25
10,SKYCRPNSLSLRMKGRRW,< -0.25
11,PFGRLWR,< -0.25
12,DGNDD,< -0.25
13,TTDSHTERRTRC,< -0.25
14,KVG,< -0.25
15,TPALTGRNERRAGPLILLFQ,< -0.25
16,RKLSISYFTLQWATMRYLCA,< -0.25
17,TGIRPRG,-0.246
18,NYVSRVVSHYNGNPGSRYSP,< -0.25
19,TRGLGFVKSLEWVSPNGLFW,< -0.25
20,IRVNLVYSSSTVNVCHRSTS,< -0.25
21,ATESVFCVKGGRNLAHRT,< -0.25
22,RAC,< -0.25
23,VDSLYPFCVRVELLRPISTP,< -0.25
24,HGVRLPINLRGHTCPARPQE,< -0.25
25,CLTSVYLLDGLGYALLKCT,< -0.25

row,Substance,growth estimate
1,DTMYNGRRGVGLGVP,< -0.25
2,DGVCMVGFGRQYGARRDVSG,< -0.25
3,YETCACWPPGQWMTPEPQGL,< -0.25
4,KDRTGFCRPTRTSRHRS,< -0.25
5,TRYHLRTTRARQDGLYLRTP,< -0.25
6,HYADSGFLERWTPCVTDSMY,< -0.25
7,GGGKCAGLFN,< -0.25
8,RRRIRRMSLGLPGAP,< -0.25
9,KERVHGSVYRGLEAPHSGRA,< -0.25
10,LIPHAAKSVRVPRVRKL,< -0.25
11,EVSYLLNSLV,< -0.25
12,SRSIGVYCSFKKQQRRWESS,< -0.25
13,LDGYLVPITVSLHSVLQLLS,< -0.25
14,GSD,-0.235 ± 0.026
15,LLV,< -0.25
16,SCMDYDSPRYTFSPKSGTR,< -0.25
17,SLRETINSSSRICIRLLVRN,< -0.25
18,FSSTRIM,-0.245
